Measured values taken from PMC12204631.
These are yes or no findings as the source states them, for the method shown. In cells and extracts the contact can be indirect. These calls come from enrichment with a bait or labelling near it, and not all partners need be listed. Where a sequence is shown, tags or fusion partners need not be part of it.

T1: 6HIS-HA-JHD2 (S. cerevisiae) (UniProt P47156)
T1 sequence: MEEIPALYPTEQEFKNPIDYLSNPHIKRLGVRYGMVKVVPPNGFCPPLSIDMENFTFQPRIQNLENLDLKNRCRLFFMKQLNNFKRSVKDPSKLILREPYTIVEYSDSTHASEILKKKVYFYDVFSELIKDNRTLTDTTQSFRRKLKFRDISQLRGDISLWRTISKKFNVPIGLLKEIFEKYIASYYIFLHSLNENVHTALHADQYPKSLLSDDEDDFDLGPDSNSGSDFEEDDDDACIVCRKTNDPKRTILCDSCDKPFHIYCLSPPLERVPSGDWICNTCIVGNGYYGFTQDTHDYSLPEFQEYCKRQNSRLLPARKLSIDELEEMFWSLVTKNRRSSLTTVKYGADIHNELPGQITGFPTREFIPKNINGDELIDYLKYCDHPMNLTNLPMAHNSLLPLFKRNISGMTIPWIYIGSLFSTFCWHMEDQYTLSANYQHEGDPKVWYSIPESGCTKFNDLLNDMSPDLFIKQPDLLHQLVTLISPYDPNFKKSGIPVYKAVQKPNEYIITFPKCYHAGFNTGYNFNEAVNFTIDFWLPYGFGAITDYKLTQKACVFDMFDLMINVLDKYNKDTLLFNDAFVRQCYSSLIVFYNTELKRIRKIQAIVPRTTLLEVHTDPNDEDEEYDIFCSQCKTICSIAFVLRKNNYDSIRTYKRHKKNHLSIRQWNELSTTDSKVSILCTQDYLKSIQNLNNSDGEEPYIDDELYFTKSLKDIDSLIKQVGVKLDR

B1: DAD2 (protein, UniProt P36162 1-133)
chain: MDSIDEQIAIKRKELQSLQKITSLTDGLKIQLTELNEQIKEMGMNADSVAQLMNNWDSIINNISQASLGLLQYAEGDYEIGPWKDSKKKESEQSNETGLEAQENDKNDEDNDEDEDLVPLPETMVRIRVDGNE
B2: DAD3 (protein, UniProt P69850 1-94)
chain: MEHNLSPLQQEVLDKYKQLSLDLKALDETIKELNYSQHRQQHSQQETVSPDEILQEMRDIEVKIGLVGTLLKGSVYSLILQRKQEQESLGSNSK
B3: DUO1 (protein, UniProt P53168 1-247)
chain: MSEQSQLDDSTIDKLIPQIFNEMRSNLNNTTNKFPKSTGGGASDNISANSNSIRSFNSITTQSLLKESESLDKITAMIKNVTAALKNNLPVYVNQVHEVCKSTNSILDSWINIHSQAGYIHKLMSDQTYLKLINDRLHNENVNTNDEDGSTLHNVIALKKKEILDLRQKLENRKGEKDAAPAKPPNQGLNPRYGVQSGRRPVPSAGISNNGRVRKTHVPASKRPSGIPRVTNRWTKPTASSSRKMFR
B4: FUN30 (protein, UniProt P31380 1-1131)
chain: MSGSHSNDEDDVVQVPETSSPTKVASSSPLKPTSPTVPDASVASLRSRFTFKPSDPSEGAHTSKPLPSGSPEVALVNLAREFPDFSQTLVQAVFKSNSFNLQSARERLTRLRQQRQNWTWNKNASPKKSETPPPVKKSLPLANTGRLSSIHGNINNKSSKITVAKQKTSIFDRYSNVINQKQYTFELPTNLNIDSEALSKLPVNYNKKRRLVRADQHPIGKSYESSATQLGSAREKLLANRKYGRHANDNDEEEEESMMTDDDDASGDDYTESTPQINLDEQVLQFINDSDIVDLSDLSDTTMHKAQLIASHRPYSSLNAFVNTNFNDKDTEENASNKRKRRAAASANESERLLDKITQSIRGYNAIESVIKKCSSYGDLVTSQMKKWGVQVEGDNSELDLMNLGEDDDDDNDDGNNDNNNSNNNNTAGADATSKEKEDTKAVVEGFDETSAEPTPAPAPAPVERETKRIRNTTKPKVVEDEDDDVDLEAIDDELPQSEHEDDDYEEEDEDYNDEEEDVEYDDGDDDDDDDDEFVATRKNTHVISTTSRNGRKPIVKFFKGKPRLLSPEISLKDYQQTGINWLNLLYQNKMSCILADDMGLGKTCQVISFFAYLKQINEPGPHLVVVPSSTLENWLREFQKFAPALKIEPYYGSLQEREELRDILERNAGKYDVIVTTYNLAAGNKYDVSFLKNRNFNVVVYDEGHMLKNSTSERFAKLMKIRANFRLLLTGTPLQNNLKELMSLLEFIMPNLFISKKESFDAIFKQRAKTTDDNKNHNPLLAQEAITRAKTMMKPFILRRRKDQVLKHLPPKHTHIQYCELNAIQKKIYDKEIQIVLEHKRMIKDGELPKDAKEKSKLQSSSSKNLIMALRKASLHPLLFRNIYNDKIITKMSDAILDEPAYAENGNKEYIKEDMSYMTDFELHKLCCNFPNTLSKYQLHNDEWMQSGKIDALKKLLKTIIVDKQEKVLIFSLFTQVLDILEMVLSTLDYKFLRLDGSTQVNDRQLLIDKFYEDKDIPIFILSTKAGGFGINLVCANNVIIFDQSFNPHDDRQAADRAHRVGQTKEVNITTLITKDSIEEKIHQLAKNKLALDSYISEDKKSQDVLESKVSDMLEDIIYDENSKPKGTKE
B5: HRR25 (protein, UniProt P29295 1-494)
chain: MDLRVGRKFRIGRKIGSGSFGDIYHGTNLISGEEVAIKLESIRSRHPQLDYESRVYRYLSGGVGIPFIRWFGREGEYNAMVIDLLGPSLEDLFNYCHRRFSFKTVIMLALQMFCRIQYIHGRSFIHRDIKPDNFLMGVGRRGSTVHVIDFGLSKKYRDFNTHRHIPYRENKSLTGTARYASVNTHLGIEQSRRDDLESLGYVLIYFCKGSLPWQGLKATTKKQKYDRIMEKKLNVSVETLCSGLPLEFQEYMAYCKNLKFDEKPDYLFLARLFKDLSIKLEYHNDHLFDWTMLRYTKAMVEKQRDLLIEKGDLNANSNAASASNSTDNKSETFNKIKLLAMKKFPTHFHYYKNEDKHNPSPEEIKQQTILNNNAASSLPEELLNALDKGMENLRQQQPQQQVQSSQPQPQPQQLQQQPNGQRPNYYPEPLLQQQQRDSQEQQQQVPMATTRATQYPPQINSNNFNTNQASVPPQMRSNPQQPPQDKPAGQSIWL
B6: HSK3 (protein, UniProt P69852 1-69)
chain: MNANKQRQYNQLAHELRELQTNLQETTKQLDIMSKQCNENLVGQLGKVHGSWLIGSYIYYMEQMLGKTQ
B7: IRR1 (protein, UniProt P40541 1-1150)
chain: MTAVRRSTRIRTKSQVIEEDYDDEQNTSAQHVESDKITAKTQHEEEEEQDTGESEESSSEDDYEDQDDDDYVDTATAKRKSRKRKPKSASNTSSKRQKKKPTSAQKSAVSHAPAYHRSKKDQDQYLEIAKDFQPTELFDILSTSEDVSIEELLREWLETYSENRDKFLQEFINLLLNCCGSVARVEDHDVHSNESSNETIGEIQLLFQRQKLHEFYLLISKENKKRKNFKMGPLYQNFAEFMTKLLEVANDLQLLYVESDEDDTQIVTGNLVLDLLTWLSSFSVCKIRCFRYISTLTLYLFQDYLTQQAVNLEKNYLAKLSKQLSLEEKKKRPNNKTLEKLESTIAETQGSKVVIDSIIDNIVKLCFVHRYKDVSDLIRSESMLHLSIWIKNYPEYFLKVTFLKYFGWLLSDNSVSVRLQVTKILPHLIIQNHNSKSTDNSAIRQVFERFKTKILEVAIRDVNLDVRIHSIQVLTEASSLGYLDDSEILIISSLMFDEEFDPFKTSSFNKRSKFLSTVAKFLARVIKEKFDEFIKTHEDLPKEVDGLEVGPVVQVGIFIKILNDSLIYHLKDCAEVDSRTKIRMLTQAAEFLSPYISTHLKTICNLLISDTESNELIQKLQNSANNNSDDEDVDDEELDITPLFPIDRNSTILYLNVFHGLCAGANNPKIQTKDSVKEIVLPLFYDLLNAASIESADILCPLLESFITFSLDDWISIGYETELKKITDKTIKAFMDSTIGNSKVDMKYDIFAKFIHHIHHFEKKELQEKFLNQIATLKIHLKKFLQEKMDPNNSRDDYKDLTCSLYELYINKLTILGRDYPIEVDEELLQLFLNNFVSRIPIMFQDFDDSTAQEINFKMLVLLATWNLEKWREIIEKVRDYENSISKDLRSVWKPIAAIIGRLNTLVISLAATNETFENINSLFYLKWSACTSLMDIIVAIKIFELKLPADATTWRYSMSEQFPFYLHDNASKVLLKIFLYLESLFAKQVDVQLERVADEDANLNDLPETGFFENIETEFLLFTVKLKGLMKLNILDERFASRVALNKEKLGPLFKKIVDDTIMENPEPNKKNIQKAKSNQTQREKAPLQPNSERETDHANTENNDPDIPMTIDLEPIEESSQNNSELAPIEEHPTVVDAIDNSDEITQD
B8: MAD1 (protein, UniProt P40957 1-749)
chain: MDVRAALQCFFSALSGRFTGKKLGLEIYSIQYKMSNSGGSSPFLESPGGSPDVGSTNGQSNRQIQALQFKLNTLQNEYEIEKLQLQKQTNILEKKYKATIDELEKALNDTKYLYESNDKLEQELKSLKERSANSMNDKDKCIEELRTTLQNKDLEMETLRQQYDSKLSKVTNQCDHFKLEAESSHSLLMKYEKEIKRQSVDIKDLQHQVMEKDDELSSVKASKMINSHPNYSTEEFNELTEMNKMIQDQVQYTKELELANMQQANELKKLKQSQDTSTFWKLENEKLQNKLSQLHVLESQYENLQLENIDLKSKLTKWEIYNDSDDDDDNNVNNNDNNNNNKNDNNNDNNNDTSNNNNINNNNRTKNNIRNNPEEIIRDWKLTKKECLILTDMNDKLRLDNNNLKLLNDEMALERNQILDLNKNYENNIVNLKRLNHELEQQKSLSFEECRLLREQLDGLYSAQNNALLEVENSETHASNKNVNEDMNNLIDTYKNKTEDLTNELKKLNDQLLSNSNDVETQRKKRKLTSDQIGLNYSQRLNELQLENVSVSRELSKAQTTIQLLQEKLEKLTKLKEKKIRILQLRDGPFIKDQFIKKNKLLLLEKENADLLNELKKNNPAVETVPISVYDSLNFELKQFEQEVFKSNKRFSRLKQVFNNKSLEFIDVVNSLLGFKLEFQQDSRVKIFSCFKPEKYLIADLNENTLKSNLDADIEGWDDLMNLWVEDRGQLPCFLATITLRLWEQRQAK
B9: PSH1 (protein, UniProt Q12161 1-406)
chain: MGDELHNRLLHQNDGTKDAILYKIIESLVCSICHDYMFVPMMTPCGHNYCYGCLNTWFASNTQKELACPQCRSDITTIPALNTTLQQYLSFILEKLRDQNDESFKKLLTTKTKEENDYKNDKEKDTLFDKVFKNSALAVADDSDDGITRCSNCHWELDPDEVEDGNVCPHCNARIRNYAGGRDEFDEEEYSEGELDEIRESMRRRRENRFASTNPFANRDDVSSEDDDSSEEEPMREHIPLGRWARSHNRSIAVDAVDDEDDEEEDEEEEEEMDSDLKDFIEDDEDDEDEDGSRRNLVLSALKNRHVIITDDEEEEQRRHATEEEDRDSDFYEHNDDGFVSGDSLDEDQKEVTRIQSSSDSEDRSLSYSGSSDVKDNNDDNTEELDDPQPKRQKRFRVVLGDSDDE
B10: RIO1 (protein, UniProt Q12196 1-484)
chain: MSLEDKFDSLSVSQGASDHINNQLLEKYSHKIKTDELSFSRAKTSKDKANRATVENVLDPRTMRFLKSMVTRGVIADLNGCLSTGKEANVYHAFAGTGKAPVIDEETGQYEVLETDGSRAEYAIKIYKTSILVFKDRERYVDGEFRFRNSRSQHNPRKMIKIWAEKEFRNLKRIYQSGVIPAPKPIEVKNNVLVMEFLSRGNGFASPKLKDYPYKNRDEIFHYYHTMVAYMRLLYQVCRLVHADLSEYNTIVHDDKLYMIDVSQSVEPEHPMSLDFLRMDIKNVNLYFEKMGISIFPERVIFQFVISETLEKFKGDYNNISALVAYIASNLPIKSTEQDEAEDEIFRSLHLVRSLGGLEERDFDRYTDGKFDLLKSLIAHDNERNFAASEQFEFDNADHECSSGTEEFSDDEEDGSSGSEEDDEEEGEYYDDDEPKVLKGKKHEDKDLKKLRKQEAKDAKREKRKTKVKKHIKKKLVKKTKSKK

The binders below were run against T1, 6HIS-HA-JHD2 (S. cerevisiae) (assay: affinity purification with mass spectrometry; whole cell extracts of a wild-type strain with 6HIS-HA-JHD2 induced from the GAL1 promoter for 6 hours; Ni-NTA agarose and anti-HA agarose beads at 4°C for 24 hours; proteins found with the empty vector strain excluded).
With B1 the binding was “binds”.
For B2, the binding was “binds”.
B3 was tested, and the binding was “binds”.
For B4, the binding was “binds”.
With B5 the binding was “binds”.
B6 was tested, and the binding was “binds”.
B7 was tested, and the binding was “binds”.
B8 was tested, and the binding was “binds”.
For B9, the binding was “binds”.
B10 was tested, and the binding was “binds”.
